From paper PMC12040169 (PLOS Biology, 2025)
The other results are listed elsewhere or left out.

These compounds were tested on T1, CTL2-GFP (C. trachomatis L2/434/Bu, GFP-expressing). Settings: bulk GFP, single well; 28.5 h, 10 µM; inhibitor.
T1 construct: L2/434/Bu, GFP-expressing
Design: species or system HeLa; Intracellular C. trachomatis growth in HeLa cells, bulk GFP fluorescence relative to DMSO

Row | SMILES | % of control remaining
1 | Cc1ccc(C2(C(=O)NCCn3ccnc3C)CCOCC2)cc1 [CBK281858] | 122.138%
2 | COCC(=O)NC1CC(C)(C)Cc2c1cnn2-c1ccc(C)cc1 (stereo not drawn) [CBK282866] | 76.8753%
3 | Cc1cc(COc2nccnc2N2CCN(CC(N)=O)CC2)no1 [CBK084192] | 124.651%
4 | O=C1NC2(CCN(C(=O)Cc3ccsc3)CC2)Nc2ccccc21 [CBK283963] | 104.977%
5 | O=C(CN1CCN(C/C=C/c2ccccc2)CC1)Nc1ccc(C2CCCCC2)cc1 [CBK074497] | 95.8979%
6 | CCC(=O)N1CCN(CCCC(=O)c2ccc(F)cc2)CC1 [CBK025017C] | 138.827%
7 | Nc1ncnc2nc(-c3ccncc3)nn12 [CBK288550] | 143.703%
8 | O=C(O)C1CSC(c2cccc(Cl)c2Cl)N1 (stereo not drawn) [CBK077526] | 82.3042%
9 | O=C(CN1CCN(C(=O)C2COc3ccccc3O2)CC1)Nc1ccc2c(c1)OCCO2 (stereo not drawn) [CBK074777] | 88.1932%
10 | O=c1n(C(c2ccccc2)c2ccccc2)ccn1S(=O)(=O)c1ccc2ccccc2c1 [CBK106623] | 78.8165%
11 | Cc1cc(CNC(=O)c2cc3ccccc3oc2=O)c2ccccc2n1 [CBK269834] | 122.417%
12 | Cc1nc(C)n(CC(=O)NCCCc2ccc(Cl)cc2)n1 [CBK281559] | 111.316%
13 | O=C(C1=C(O)C(=O)N(CCN2CCOCC2)C1c1cccc(Br)c1)c1ccco1 (stereo not drawn) [CBK264490] | 138.963%
14 | c1ccc(CN(Cc2ccccc2)Cn2c3ccccc3c3ccccc32)cc1 [CBK263575] | 112.956%
15 | O=C1CCCN1CCC(=O)N1CCCC1c1nc2ccccc2[nH]1 (stereo not drawn) [CBK283981] | 106.301%
16 | Cn1c(=O)c2c(ncn2CC(=O)Nc2ccc3ccccc3c2)n(C)c1=O [CBK133722] | 91.6691%
17 | Fc1ccc(Sc2ccc(C(F)(F)F)cn2)cc1 [CBK115235] | 173.185%
18 | CCn1cc(C(=O)N2CCCC2c2nc3ccccc3[nH]2)c(C)n1 (stereo not drawn) [CBK283777] | 117.51%
19 | COc1cc(Nc2cncc(-c3ccc(O)cc3)n2)c(Cl)cc1C(=O)NCCCN(C)C [CBK122651] | 131.047%
20 | CC(C)[C@H](CO)n1c(=O)[nH]c2ncc(-c3cccc4ccccc34)nc21 [CBK064985] | 174.013%
21 | Cc1ccc(C(=O)NCC2COc3ccccc3O2)c(N2CCOCC2)n1 (stereo not drawn) [CBK076519] | 95.4392%

Row | SMILES | % of control remaining
22 | Cc1nn(Cc2ccc(C(=O)N3CCN(Cc4ccccc4)CC3)o2)c(C)c1Br [CBK265796C] | 125.415%
23 | CCn1cc(NCc2ccccc2Cl)c(C(=O)O)n1 [CBK286807] | 107.84%
24 | O=C1N[C@@H]2CCN(C(=O)C3CC3)[C@@H]2C(=O)N1c1ccc(F)cc1 [CBK289324] | 137.867%
25 | O=C(Nc1ccc2ncccc2c1)c1cccnc1 [CBK159820] | 94.2531%
26 | Cc1cc(C)n(C2CCN(Cc3ccc(-n4ccnc4C)cc3)CC2)n1 [CBK281976] | 102.804%
27 | NC(=O)c1[nH]nc(C2OC(CO)C(O)C2O)c1O (stereo not drawn) [CBK201236] | 45.2161%
28 | CS(=O)(=O)Nc1nccnc1OC1CCN(CCCC#N)CC1 [CBK084276] | 90.6303%
29 | C[C@H](NC(=O)C1CC(=O)N(c2ccc(F)cc2)C1)C(=O)N1CCC(C(=O)O)CC1 (stereo partly drawn) [CBK286733] | 133.818%
30 | Cc1ccc(N(CC(=O)Nc2cccc3cccnc23)S(=O)(=O)c2ccc(C)cc2)cc1 [CBK262201] | 89.4892%
31 | Oc1ccc(/C=N/N(Cc2ccccc2)Cc2ccccc2)cc1 [CBK261414] | 112.348%
32 | CCN1CC(C(=O)N2CCCC(CN(C)C)C2)CC1=O (stereo not drawn) [CBK282064] | 99.0256%
33 | Cc1cc2cc(CN(CC3CCCO3)C(=O)C3CC3)c(Cl)nc2cc1C (stereo not drawn) [CBK109881] | 94.7983%
34 | CN(C)S(=O)(=O)c1cccc(C(=O)NCCc2ccccc2)c1 [CBK267793] | 137.656%
35 | CC(NC(=O)N(Cc1ccccc1C(F)(F)F)CC(C)(C)CN)c1cccc2ccccc12 (stereo not drawn) [CBK002422C] | 46.4836%
36 | COc1ccccc1CNC(=O)c1cc(-c2ccccc2)nc2ccccc12 [CBK294458] | 122.724%
37 | CN(C)CCCN(Cc1cnn(C)c1)Cc1ccco1 [CBK283039] | 110.047%
38 | Nc1ncc(-c2ccoc2)nc1-c1ccc(F)c(Cl)c1 [CBK063982] | 140.17%
39 | COCc1cccc(-c2nccnc2OCC(=O)OC)c1 [CBK106976] | 114.528%
40 | Cc1cccc(C(=O)N2CCCC(C)C2)c1 (stereo not drawn) [CBK074057] | 111.162%
41 | COc1ccc([C@H](O)[C@@H]2CCCN(C(=O)OC(C)(C)C)C2)cc1 [CBK284311] | 118.144%
42 | CN(C)CCNC(=O)c1ccc2[nH]ccc2c1 [CBK149062] | 91.839%

Reformatted: entries from further up.
Row,SMILES,% of control remaining
25,O=C(Nc1ccc2ncccc2c1)c1cccnc1 [CBK159820],94.2531%
30,Cc1ccc(N(CC(=O)Nc2cccc3cccnc23)S(=O)(=O)c2ccc(C)cc2)cc1 [CBK262201],89.4892%

Remaining list, next part

Row | SMILES | % of control remaining
43 | CS(=O)(=O)N[C@H]1C[C@H]2C(=O)Nc3cc(Cl)ccc3C(=O)N2C1 [CBK289363] | 146.994%
44 | COc1cc(Nc2nc(-c3ccccc3F)cn3ccnc23)cc(OC)c1OC [CBK037301] | 115.03%
45 | COc1ccc(CNC(=O)Cn2nnc(-c3ccc(NC(=O)C4CCCCC4)cc3)n2)cc1 [CBK135876] | 96.6246%
46 | CN1CCN(C(=O)c2[nH]c3ccccc3c2NS(=O)(=O)Cc2ccccc2[N+](=O)[O-])CC1 [CBK050059] | 126.513%
47 | OCCN1CCN(c2nccnc2-c2cccs2)CC1 [CBK088811] | 124.681%
48 | OC[C@H]1OCC[C@H]1O [CBK201263] | 105.831%
49 | Cc1c(Cl)cccc1S(=O)(=O)Nc1ccsc1C(=O)O [CBK004549] | 102.588%
50 | COc1ccc(-c2c(C(F)(F)F)oc3cc(OC(=O)c4cccc(C)c4)ccc3c2=O)cc1OC [CBK263907] | 91.018%
51 | COCCNC(=O)Cn1c(-c2cccs2)cc2cccnc21 [CBK282554] | 89.554%
52 | O=C(NCc1ccc(F)cc1)c1ccc(=O)n(CC(=O)N2CCC3(CCCCC3)C2)c1 [CBK286021] | 103.684%
53 | COCCn1ccc(NC(=O)N2CCCC(c3cc(F)ccc3F)C2)n1 (stereo not drawn) [CBK305451] | 131.75%
54 | O=C1NCC(c2ccccc2)C1C(=O)N/N=C\c1cc(O)ccc1[N+](=O)[O-] (stereo not drawn) [CBK262772] | 119.792%
55 | Cc1cc(N2CCN(Cc3nc(C(C)(C)C)no3)CC2)nc(C(C)C)n1 [CBK305333] | 97.0638%
56 | COc1ccc(Br)cc1S(=O)(=O)Nc1c(C(=O)O)[nH]c2ccccc12 [CBK049887] | 108.156%
57 | CN(CC(=O)NNC(=O)c1cccnc1)S(=O)(=O)c1cc(Cl)ccc1Cl [CBK267388] | 125.724%
58 | Cc1cc(NC(=O)C2CCN(C(=O)CNc3ccccc3)CC2)no1 [CBK304297C] | 119.846%
59 | O=C(Nc1nnc(-c2ccccc2)o1)c1nc2ccccc2s1 [CBK287595] | 136.622%
60 | O=C(NCCc1c[nH]c2ccc(Cl)cc12)c1ccc(Br)cc1Cl [CBK159762] | 55.0814%
61 | CC(C)C(=O)NC(C)c1nc(-c2ccncc2)n[nH]1 (stereo not drawn) [CBK104021] | 106.811%
62 | Cc1ccc2c(c1)N(CCO)C(C)(C)CC2C (stereo not drawn) [CBK006567] | 107.212%
63 | c1ccc(-c2nc3ccccc3nc2N2CCNCC2)cc1 [CBK269574C] | 175.838%

16 structures out of the list, ordered by heavy-atom count, low to high:
Row | SMILES | % of control remaining
48 | OC[C@H]1OCC[C@H]1O [CBK201263] | 105.831%
40 | Cc1cccc(C(=O)N2CCCC(C)C2)c1 (stereo not drawn) [CBK074057] | 111.162%
42 | CN(C)CCNC(=O)c1ccc2[nH]ccc2c1 [CBK149062] | 91.839%
61 | CC(C)C(=O)NC(C)c1nc(-c2ccncc2)n[nH]1 (stereo not drawn) [CBK104021] | 106.811%
37 | CN(C)CCCN(Cc1cnn(C)c1)Cc1ccco1 [CBK283039] | 110.047%
39 | COCc1cccc(-c2nccnc2OCC(=O)OC)c1 [CBK106976] | 114.528%
63 | c1ccc(-c2nc3ccccc3nc2N2CCNCC2)cc1 [CBK269574C] | 175.838%
59 | O=C(Nc1nnc(-c2ccccc2)o1)c1nc2ccccc2s1 [CBK287595] | 136.622%
56 | COc1ccc(Br)cc1S(=O)(=O)Nc1c(C(=O)O)[nH]c2ccccc12 [CBK049887] | 108.156%
55 | Cc1cc(N2CCN(Cc3nc(C(C)(C)C)no3)CC2)nc(C(C)C)n1 [CBK305333] | 97.0638%
54 | O=C1NCC(c2ccccc2)C1C(=O)N/N=C\c1cc(O)ccc1[N+](=O)[O-] (stereo not drawn) [CBK262772] | 119.792%
44 | COc1cc(Nc2nc(-c3ccccc3F)cn3ccnc23)cc(OC)c1OC [CBK037301] | 115.03%
52 | O=C(NCc1ccc(F)cc1)c1ccc(=O)n(CC(=O)N2CCC3(CCCCC3)C2)c1 [CBK286021] | 103.684%
46 | CN1CCN(C(=O)c2[nH]c3ccccc3c2NS(=O)(=O)Cc2ccccc2[N+](=O)[O-])CC1 [CBK050059] | 126.513%
45 | COc1ccc(CNC(=O)Cn2nnc(-c3ccc(NC(=O)C4CCCCC4)cc3)n2)cc1 [CBK135876] | 96.6246%
50 | COc1ccc(-c2c(C(F)(F)F)oc3cc(OC(=O)c4cccc(C)c4)ccc3c2=O)cc1OC [CBK263907] | 91.018%

Following part:

Row | SMILES | % of control remaining
64 | COc1cccc(CNc2ccc(-c3nc4ncccc4o3)cc2)c1OC [CBK269716] | 140.199%
65 | NC(=O)c1cccc(-c2nccnc2NCCO)c1 [CBK088993] | 182.141%
66 | CS(=O)(=O)N1CCN(c2ccc(NC(=O)CSc3nc(-c4ccccc4)cs3)cc2)CC1 [CBK267934] | 132.503%
67 | CC(C)(C)SCC(=O)c1ccc2c(c1)CCC(=O)N2 [CBK006168] | 107.64%
68 | Nc1ncc(-c2ccsc2)c2cccnc12 [CBK067580] | 149.686%
69 | Cc1ccc(NC(=O)CCN2C(=O)c3cccc([N+](=O)[O-])c3C2=O)c(Br)c1 [CBK263172] | 118.285%
70 | CCOc1ccc(-c2cc(C(=O)Nc3cccc(C(=O)O)c3)no2)cc1 [CBK299776] | 146.53%
71 | CNS(=O)(=O)c1ccc2c3c(cccc13)C(=O)N2 [CBK287275] | 144.13%
72 | C=CCNc1nccnc1-c1cccc(O)c1 [CBK088505] | 100%
73 | O=C(CSc1ccc(Br)cc1)NCc1ccco1 [CBK269701] | 137.345%
74 | Cc1ccc(CNC(=O)CSc2nc(N)n[nH]2)cc1 [CBK267914] | 115.651%
75 | CN(C)c1ccc(-n2ncc(-c3ccsc3)n2)cc1 [CBK112845] | 175.604%
76 | CCSC1=C(C#N)C(=O)NC(c2ccccc2O)S1 (stereo not drawn) [CBK293971] | 128.995%
77 | CC1CCCN(Cc2nc3c(c(=O)n(C)c(=O)n3C)n2CC(N)=O)C1 (stereo not drawn) [CBK306064] | 136.761%
78 | O=C(COc1ccc(S(=O)(=O)N2CCCCC2)cc1Cl)Nc1ccc2c(c1)OCCO2 [CBK269540] | 130.641%
79 | O=C(O)CCC(NC(=O)c1ccc(-c2ccc(F)cc2)s1)C(=O)O (stereo not drawn) [CBK295172] | 143.327%
80 | CCCCc1c(O)c2ccccc2n(Cc2ccccc2)c1=O [CBK219416] | 112.657%
81 | S=c1[nH]nc2sc3ccccc3n12 [CBK018156] | 128.721%
